# Measurements from the supplement of paper PMC10849652.
# Amino acid sequences for entries named in this document (tags omitted). A change or cut given only in a name is not applied to a line headed by its entry.
# UniProt Q14534: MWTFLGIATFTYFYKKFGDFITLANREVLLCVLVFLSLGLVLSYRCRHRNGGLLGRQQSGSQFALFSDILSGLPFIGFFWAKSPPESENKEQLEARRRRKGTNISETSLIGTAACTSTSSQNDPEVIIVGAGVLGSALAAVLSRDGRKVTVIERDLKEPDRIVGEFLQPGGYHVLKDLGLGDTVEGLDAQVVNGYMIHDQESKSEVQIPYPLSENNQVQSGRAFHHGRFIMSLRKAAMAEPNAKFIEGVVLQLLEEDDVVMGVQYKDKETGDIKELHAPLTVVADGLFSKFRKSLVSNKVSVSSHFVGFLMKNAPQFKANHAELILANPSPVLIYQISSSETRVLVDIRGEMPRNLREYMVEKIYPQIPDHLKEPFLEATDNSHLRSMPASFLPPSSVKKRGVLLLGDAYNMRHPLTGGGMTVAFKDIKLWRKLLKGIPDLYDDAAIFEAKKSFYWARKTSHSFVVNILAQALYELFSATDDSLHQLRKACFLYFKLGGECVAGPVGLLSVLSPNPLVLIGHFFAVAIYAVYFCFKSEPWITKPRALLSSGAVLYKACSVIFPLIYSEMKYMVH
# UniProt P16150: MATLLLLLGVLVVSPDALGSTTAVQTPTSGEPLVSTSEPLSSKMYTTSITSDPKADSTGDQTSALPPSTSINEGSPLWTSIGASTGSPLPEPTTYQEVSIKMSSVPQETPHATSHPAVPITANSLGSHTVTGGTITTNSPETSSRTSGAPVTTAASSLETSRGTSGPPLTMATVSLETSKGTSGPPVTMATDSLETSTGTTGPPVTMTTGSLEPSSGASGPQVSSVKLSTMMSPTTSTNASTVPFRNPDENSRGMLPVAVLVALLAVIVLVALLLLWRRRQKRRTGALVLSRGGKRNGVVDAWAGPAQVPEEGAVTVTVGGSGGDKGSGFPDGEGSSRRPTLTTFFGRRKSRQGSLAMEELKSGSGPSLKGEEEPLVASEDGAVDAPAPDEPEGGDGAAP
# UniProt Q9P2P6: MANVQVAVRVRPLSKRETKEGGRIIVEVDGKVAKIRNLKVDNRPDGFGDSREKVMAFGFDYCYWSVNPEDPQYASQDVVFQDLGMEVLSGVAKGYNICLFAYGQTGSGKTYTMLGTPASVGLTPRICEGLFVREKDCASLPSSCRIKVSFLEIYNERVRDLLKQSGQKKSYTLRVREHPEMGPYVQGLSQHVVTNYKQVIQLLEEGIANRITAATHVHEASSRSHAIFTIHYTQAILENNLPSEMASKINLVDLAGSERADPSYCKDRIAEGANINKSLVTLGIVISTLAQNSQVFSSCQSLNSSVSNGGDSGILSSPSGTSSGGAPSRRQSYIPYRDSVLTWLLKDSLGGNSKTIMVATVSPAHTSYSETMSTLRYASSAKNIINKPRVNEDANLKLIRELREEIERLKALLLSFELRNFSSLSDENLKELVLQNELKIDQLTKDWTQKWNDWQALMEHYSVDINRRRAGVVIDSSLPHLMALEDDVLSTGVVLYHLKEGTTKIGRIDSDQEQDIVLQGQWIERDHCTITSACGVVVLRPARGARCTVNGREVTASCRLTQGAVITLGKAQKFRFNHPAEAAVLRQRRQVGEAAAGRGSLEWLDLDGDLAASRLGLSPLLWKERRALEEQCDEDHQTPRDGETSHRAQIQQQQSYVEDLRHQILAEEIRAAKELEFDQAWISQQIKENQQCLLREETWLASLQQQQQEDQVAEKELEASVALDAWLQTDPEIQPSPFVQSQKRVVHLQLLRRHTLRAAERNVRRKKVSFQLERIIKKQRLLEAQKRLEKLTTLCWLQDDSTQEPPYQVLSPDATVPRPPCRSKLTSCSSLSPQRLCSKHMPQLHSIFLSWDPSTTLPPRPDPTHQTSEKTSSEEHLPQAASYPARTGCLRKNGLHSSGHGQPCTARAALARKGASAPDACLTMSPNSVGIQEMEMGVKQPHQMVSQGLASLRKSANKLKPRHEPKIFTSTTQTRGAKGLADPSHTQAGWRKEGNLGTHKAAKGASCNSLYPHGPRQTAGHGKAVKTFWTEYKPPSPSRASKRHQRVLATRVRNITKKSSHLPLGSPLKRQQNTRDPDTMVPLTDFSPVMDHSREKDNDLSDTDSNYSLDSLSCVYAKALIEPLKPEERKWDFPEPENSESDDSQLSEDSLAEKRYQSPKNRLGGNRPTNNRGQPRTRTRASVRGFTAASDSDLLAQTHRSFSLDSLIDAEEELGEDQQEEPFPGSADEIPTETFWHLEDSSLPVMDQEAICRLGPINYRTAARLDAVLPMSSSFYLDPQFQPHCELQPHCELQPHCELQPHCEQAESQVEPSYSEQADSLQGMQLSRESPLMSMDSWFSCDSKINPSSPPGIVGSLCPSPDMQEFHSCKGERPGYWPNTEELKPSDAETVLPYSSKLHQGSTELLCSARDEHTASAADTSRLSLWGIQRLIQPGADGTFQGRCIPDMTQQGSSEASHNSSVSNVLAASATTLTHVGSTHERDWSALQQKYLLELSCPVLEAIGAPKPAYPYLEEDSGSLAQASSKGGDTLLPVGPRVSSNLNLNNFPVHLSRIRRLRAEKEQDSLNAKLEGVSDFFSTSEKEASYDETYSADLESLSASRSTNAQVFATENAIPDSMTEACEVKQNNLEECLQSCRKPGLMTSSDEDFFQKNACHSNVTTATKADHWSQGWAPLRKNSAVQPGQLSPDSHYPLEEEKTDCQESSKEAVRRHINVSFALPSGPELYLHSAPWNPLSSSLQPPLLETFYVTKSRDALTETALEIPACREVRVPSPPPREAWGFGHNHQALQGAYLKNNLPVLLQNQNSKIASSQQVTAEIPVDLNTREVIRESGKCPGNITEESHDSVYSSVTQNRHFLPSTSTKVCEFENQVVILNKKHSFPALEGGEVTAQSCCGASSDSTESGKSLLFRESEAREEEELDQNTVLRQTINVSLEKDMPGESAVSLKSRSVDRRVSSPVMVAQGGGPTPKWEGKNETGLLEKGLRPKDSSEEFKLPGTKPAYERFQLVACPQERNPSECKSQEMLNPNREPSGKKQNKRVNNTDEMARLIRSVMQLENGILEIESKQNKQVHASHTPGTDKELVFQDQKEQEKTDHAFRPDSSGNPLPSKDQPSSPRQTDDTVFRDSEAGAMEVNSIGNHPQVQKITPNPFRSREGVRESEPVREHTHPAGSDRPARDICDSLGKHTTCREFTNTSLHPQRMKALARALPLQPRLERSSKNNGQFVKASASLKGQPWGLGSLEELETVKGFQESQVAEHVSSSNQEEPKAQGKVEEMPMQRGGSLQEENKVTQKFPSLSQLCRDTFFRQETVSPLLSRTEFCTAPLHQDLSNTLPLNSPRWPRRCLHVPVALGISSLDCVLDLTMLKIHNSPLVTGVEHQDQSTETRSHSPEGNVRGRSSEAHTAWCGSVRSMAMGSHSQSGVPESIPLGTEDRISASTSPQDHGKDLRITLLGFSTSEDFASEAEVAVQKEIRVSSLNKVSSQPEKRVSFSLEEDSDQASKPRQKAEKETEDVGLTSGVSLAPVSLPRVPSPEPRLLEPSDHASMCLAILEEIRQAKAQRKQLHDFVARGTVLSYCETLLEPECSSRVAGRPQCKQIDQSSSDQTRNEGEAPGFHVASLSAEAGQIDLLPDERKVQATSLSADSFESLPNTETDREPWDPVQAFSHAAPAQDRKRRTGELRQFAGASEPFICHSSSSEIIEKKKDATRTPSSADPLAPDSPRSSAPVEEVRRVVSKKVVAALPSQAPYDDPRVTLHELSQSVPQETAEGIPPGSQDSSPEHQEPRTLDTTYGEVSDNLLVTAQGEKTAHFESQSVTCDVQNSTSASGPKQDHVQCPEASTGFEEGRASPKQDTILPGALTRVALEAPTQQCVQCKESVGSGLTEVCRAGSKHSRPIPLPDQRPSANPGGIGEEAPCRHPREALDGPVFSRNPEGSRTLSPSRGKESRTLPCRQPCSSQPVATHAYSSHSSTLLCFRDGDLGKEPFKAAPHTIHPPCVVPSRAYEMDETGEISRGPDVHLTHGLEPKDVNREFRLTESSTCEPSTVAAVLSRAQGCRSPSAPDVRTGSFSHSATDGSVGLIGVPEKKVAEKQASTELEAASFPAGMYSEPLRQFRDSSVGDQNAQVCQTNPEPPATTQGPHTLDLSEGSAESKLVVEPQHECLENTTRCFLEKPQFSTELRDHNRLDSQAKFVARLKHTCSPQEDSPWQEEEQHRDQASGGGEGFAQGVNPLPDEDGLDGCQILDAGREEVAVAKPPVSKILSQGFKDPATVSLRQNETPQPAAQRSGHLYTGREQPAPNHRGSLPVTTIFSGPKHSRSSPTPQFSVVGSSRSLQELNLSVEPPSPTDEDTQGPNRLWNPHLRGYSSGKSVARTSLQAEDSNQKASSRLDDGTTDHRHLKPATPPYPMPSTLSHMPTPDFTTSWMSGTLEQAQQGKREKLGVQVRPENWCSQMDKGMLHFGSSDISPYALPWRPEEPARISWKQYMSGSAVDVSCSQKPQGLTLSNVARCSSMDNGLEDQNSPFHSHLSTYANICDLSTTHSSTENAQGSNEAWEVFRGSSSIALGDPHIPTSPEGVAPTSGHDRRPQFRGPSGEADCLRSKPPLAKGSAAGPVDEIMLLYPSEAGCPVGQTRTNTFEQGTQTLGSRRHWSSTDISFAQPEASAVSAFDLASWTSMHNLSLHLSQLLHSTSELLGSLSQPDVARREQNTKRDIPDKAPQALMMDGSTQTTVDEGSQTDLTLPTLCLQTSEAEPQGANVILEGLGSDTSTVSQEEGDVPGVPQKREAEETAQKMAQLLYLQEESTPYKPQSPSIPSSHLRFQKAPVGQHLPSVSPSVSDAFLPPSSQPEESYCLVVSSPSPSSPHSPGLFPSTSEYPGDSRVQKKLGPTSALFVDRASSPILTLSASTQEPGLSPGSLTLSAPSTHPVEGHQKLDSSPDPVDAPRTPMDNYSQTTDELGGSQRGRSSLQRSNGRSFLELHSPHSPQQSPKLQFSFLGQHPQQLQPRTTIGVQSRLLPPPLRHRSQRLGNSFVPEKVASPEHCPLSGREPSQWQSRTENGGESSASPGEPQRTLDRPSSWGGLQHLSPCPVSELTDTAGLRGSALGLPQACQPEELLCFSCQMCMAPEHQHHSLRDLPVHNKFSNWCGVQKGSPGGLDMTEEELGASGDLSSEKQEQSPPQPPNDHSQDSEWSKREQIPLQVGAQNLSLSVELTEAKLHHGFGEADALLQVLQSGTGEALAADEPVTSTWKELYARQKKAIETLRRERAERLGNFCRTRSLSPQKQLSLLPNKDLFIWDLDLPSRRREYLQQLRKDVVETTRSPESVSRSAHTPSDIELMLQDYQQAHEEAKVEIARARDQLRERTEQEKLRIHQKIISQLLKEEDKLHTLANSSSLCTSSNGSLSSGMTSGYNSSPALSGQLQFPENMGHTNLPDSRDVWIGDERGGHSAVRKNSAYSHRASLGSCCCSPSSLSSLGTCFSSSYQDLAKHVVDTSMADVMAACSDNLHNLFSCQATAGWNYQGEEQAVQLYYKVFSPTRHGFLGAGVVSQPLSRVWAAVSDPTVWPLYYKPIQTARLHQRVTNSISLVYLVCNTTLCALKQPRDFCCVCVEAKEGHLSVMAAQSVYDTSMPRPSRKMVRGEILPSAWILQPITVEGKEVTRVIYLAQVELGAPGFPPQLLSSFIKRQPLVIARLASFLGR
# UniProt Q13242, whole entry, looked up: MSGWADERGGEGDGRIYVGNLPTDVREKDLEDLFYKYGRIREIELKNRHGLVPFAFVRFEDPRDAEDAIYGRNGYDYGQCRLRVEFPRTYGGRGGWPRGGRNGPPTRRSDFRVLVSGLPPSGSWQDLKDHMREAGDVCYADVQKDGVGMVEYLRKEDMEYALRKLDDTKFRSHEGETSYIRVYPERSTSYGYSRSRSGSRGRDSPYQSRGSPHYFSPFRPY
# UniProt Q86XZ4: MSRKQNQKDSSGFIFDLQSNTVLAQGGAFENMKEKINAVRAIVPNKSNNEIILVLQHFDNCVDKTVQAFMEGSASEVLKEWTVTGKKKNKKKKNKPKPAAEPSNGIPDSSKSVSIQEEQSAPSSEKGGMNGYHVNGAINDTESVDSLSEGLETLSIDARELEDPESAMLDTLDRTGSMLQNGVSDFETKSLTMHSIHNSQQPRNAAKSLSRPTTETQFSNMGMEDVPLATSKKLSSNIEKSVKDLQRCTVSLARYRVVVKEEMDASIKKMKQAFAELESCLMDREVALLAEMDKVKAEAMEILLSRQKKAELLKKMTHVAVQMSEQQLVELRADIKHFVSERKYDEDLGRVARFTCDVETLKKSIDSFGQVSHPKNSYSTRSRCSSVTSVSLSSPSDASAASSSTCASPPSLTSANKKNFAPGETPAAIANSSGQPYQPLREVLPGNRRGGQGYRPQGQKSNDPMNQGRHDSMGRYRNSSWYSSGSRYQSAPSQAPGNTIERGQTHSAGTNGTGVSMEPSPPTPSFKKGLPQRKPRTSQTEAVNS
# This is one part of the list.
# Columns and labels:
# Assay in all cases: log2 fold change, soluble protein after heating vs DMSO (PISA); higher = thermal stabilisation; K562 lysate, 10 uM; active = over 0.2 and 3.5 SD of the protein, either way, in both replicates (recomputed)
# erlotinib = compound: C#Cc1cccc(Nc2ncnc3cc(OCCOC)c(OCCOC)cc23)c1 [erlotinib]
# Outline: (§1)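 K562 pellets were dounce-homogenised in PBS pH 7.4 with 1 mM MgCl2, and the crude extract at 1 mg/mL protein was treated with 10 μM compound for 30 min. Aliquots were heated for 3 min across 48°C-58°C, pooled, and brought to 0.5% NP-40 at 4°C; soluble protein was the supernatant after 21,000xg for 90 min. Soluble protein was quantified by TMTpro 16plex LC-MS/MS with channel sums equalised, and reported as log2 fold change in thermal stability against DMSO controls, with values from duplicates.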
# [1] = compound: C/C(=N\NC(=O)C1=CC(=CC=C1)S(=O)(=O)N2CCOCC2)/C3=C(C=CC(=C3)Cl)O
# Outline: as §1
# [2] = compound: C1=CC(=CC=C1C2=NC3=C(N2)C=C(C=C3)C(=O)N)OC4=CC=C(C=C4)Cl
# Outline: as §1
# [3] = compound: C1=CC2=C(C=CC(=C2)/C=C\3/C(=O)NC(=NCC4=CC=CS4)S3)N=C1
# Outline: as §1
# [4] = compound: C1=CC2=NC=CN=C2C=C1/C=C/3\C(=O)NC(=O)S3
# Outline: as §1
# [5] = compound: C1=CC=C(C=C1)C2=NC(=C(N2)C3=CC=NC=C3)C4=CC(=C(C=C4)Cl)O
# Outline: as §1
# [6] = compound: C1=CC=C2C(=C1)C3=NNC4=CC=CC(=C43)C2=O
# Outline: as §1
# [7] = compound: C1CCN(C1)C(=O)NC2=CC=CC(=C2)NC3=NC=C(C(=N3)NCCC4=CN=CN4)Br
# Outline: as §1
# [8] = compound: C1CN(CCC1(CC2=CC=C(C=C2)Cl)N)C3=NC=NC4=C3C=CN4
# Outline: as §1
# IRAK-1-4 Inhibitor I = compound: C1COCCN1CCN2C3=CC=CC=C3N=C2NC(=O)C4=CC(=CC=C4)[N+](=O)[O-] [IRAK-1-4 Inhibitor I]
# Outline: as §1
Target,log2 fold change (erlotinib),log2 fold change [1],log2 fold change [2],log2 fold change [3],log2 fold change [4],log2 fold change [5],log2 fold change [6],log2 fold change [7],log2 fold change [8],log2 fold change (IRAK-1-4 Inhibitor I)
SQLE (UniProt Q14534),inactive: -0.025,inactive: 0.056,inactive: 0.019,inactive: -0.03,inactive: -0.028,inactive: 0.007,inactive: 0.074,inactive: -0.019,inactive: -0.084,inactive: 0.023
SPATA7 (UniProt Q9P0W8),inactive: -0.068,inactive: -0.236,inactive: -0.06,inactive: 0.001,inactive: -0.065,,inactive: -0.152,inactive: -0.111,inactive: 0.026,
SRPRA (UniProt P08240),inactive: 0.001,inactive: -0.055,inactive: 0.003,inactive: 0.014,inactive: -0.013,inactive: -0.025,inactive: -0.023,inactive: -0.028,inactive: -0.027,inactive: 0
SPN (UniProt P16150),inactive: -0.019,inactive: -0.119,inactive: 0.023,inactive: 0.001,inactive: -0.018,inactive: 0.01,inactive: 0.001,inactive: 0.021,inactive: 0.022,inactive: 0.037
ST3GAL4 isoform 4 (UniProt Q11206),inactive: 0.253,inactive: -0.045,inactive: -0.234,inactive: 0.007,inactive: 0.077,inactive: -0.029,inactive: -0.076,inactive: -0.215,inactive: -0.041,inactive: 0.041
SSX1 (UniProt Q16384),inactive: 0.241,inactive: -0.158,inactive: 0.001,inactive: 0.009,,inactive: 0.028,inactive: -0.021,inactive: -0.079,inactive: 0.044,inactive: -0.288
"SPCS1, A0A5F9YFS9",inactive: -0.031,inactive: -0.022,inactive: -0.047,inactive: 0.007,inactive: 0.03,inactive: 0.035,inactive: -0.082,inactive: -0.026,inactive: -0.075,inactive: 0.015
SRSF7 (UniProt Q16629),inactive: 0.019,inactive: -0.068,inactive: -0.043,inactive: 0.002,inactive: -0.066,inactive: -0.02,inactive: -0.016,inactive: 0.032,inactive: 0.008,inactive: -0.03
STARD9 (UniProt Q9P2P6),inactive: 0,inactive: -0.26,inactive: -0.055,inactive: -0.064,,inactive: 0.046,inactive: -0.033,inactive: 0.141,inactive: 0.157,inactive: -0.004
SPRY2 (UniProt O43597),inactive: 0.012,,inactive: 0.077,,,,,,,
STAG2 isoform 2 (UniProt Q8N3U4),inactive: -0.01,inactive: -0.005,inactive: 0.024,inactive: 0.003,inactive: -0.03,inactive: 0.001,inactive: 0.007,inactive: 0.001,inactive: 0.013,inactive: 0.001
SRSF9 (UniProt Q13242),inactive: 0.027,active: 0.263,inactive: 0.007,inactive: 0.077,inactive: 0.052,inactive: -0.01,inactive: 0.097,inactive: 0.072,inactive: 0.007,inactive: 0.012
SPATS2 (UniProt Q86XZ4),inactive: -0.012,inactive: -0.127,inactive: -0.042,inactive: 0.028,inactive: -0.007,inactive: 0.017,inactive: -0.081,inactive: 0.063,inactive: 0.043,inactive: -0.066
SSBP2 (UniProt P81877),inactive: -0.076,inactive: 0.18,inactive: -0.046,inactive: -0.087,,inactive: -0.075,inactive: -0.057,inactive: 0.034,inactive: 0.303,inactive: 0.127
STAM (UniProt A6NMU3),inactive: 0.021,inactive: -0.03,inactive: -0.003,inactive: -0.127,,inactive: 0.08,inactive: 0.001,inactive: -0.034,inactive: 0.035,inactive: -0.219
SPCS2 (UniProt Q15005),inactive: -0.019,inactive: -0.023,inactive: 0.023,inactive: 0.058,inactive: 0.016,inactive: -0.006,inactive: 0.002,inactive: 0.049,inactive: 0.002,inactive: -0.027
ST13P4 (UniProt Q8IZP2),inactive: 0.194,inactive: -0.159,inactive: 0.129,inactive: -0.097,,inactive: 0.005,inactive: -0.051,,,inactive: 0.042

# Shown with bars between the fields: entries from further up.
Target | log2 fold change (erlotinib) | log2 fold change [1] | log2 fold change [2] | log2 fold change [3] | log2 fold change [4] | log2 fold change [5] | log2 fold change [6] | log2 fold change [7] | log2 fold change [8] | log2 fold change (IRAK-1-4 Inhibitor I)
SRSF7 (UniProt Q16629) | inactive: 0.019 | inactive: -0.068 | inactive: -0.043 | inactive: 0.002 | inactive: -0.066 | inactive: -0.02 | inactive: -0.016 | inactive: 0.032 | inactive: 0.008 | inactive: -0.03
STARD9 (UniProt Q9P2P6) | inactive: 0 | inactive: -0.26 | inactive: -0.055 | inactive: -0.064 |  | inactive: 0.046 | inactive: -0.033 | inactive: 0.141 | inactive: 0.157 | inactive: -0.004
SPRY2 (UniProt O43597) | inactive: 0.012 |  | inactive: 0.077 |  |  |  |  |  |  | 
STAG2 isoform 2 (UniProt Q8N3U4) | inactive: -0.01 | inactive: -0.005 | inactive: 0.024 | inactive: 0.003 | inactive: -0.03 | inactive: 0.001 | inactive: 0.007 | inactive: 0.001 | inactive: 0.013 | inactive: 0.001
